Measurements reported in PubChem BioAssay AID504784 (Drosophila RNAi Screening Center, 2011).
Test: 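Fly genes whose silencing alters how much lipid cells keep in droplets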 (primary screen). Cell system: Drosophila Kc167 embryonic cells. Knock-down reagent: long dsRNA against Drosophila genes, about 250 ng dsRNA per well. Duration: 4 days. Conditions: cells fed 400 µM oleic acid bound to BSA. Measurement: 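Microscope images give a droplet-to-nucleus area ratio, taken as log and converted to a screen-wide B-score; higher values mean greater lipid storage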. Scale: droplet/nuclear area B-score: higher = more stored lipid (overstorage).
The deposit covers about 17,000 reagents; below is a random part of those with a known target gene and a result. 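Each column is one replicate's B-score; the combined score over replicates was not deposited, so single values may mislead.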 Reagent sequences are not shown.

gene | amplicon | droplet/nuclear area B-score, replicate 1 | droplet/nuclear area B-score, replicate 2 | droplet/nuclear area B-score, replicate 3
CG31933 | DRSC00457 | -1.61 | -1.02 | –
CG32450 | DRSC11546 | -1.73 | 1.9 | –
Naa40 (N(alpha)-acetyltransferase 40) | DRSC16265 | 0.0457 | – | –
Kpc1 (Kip1 ubiquitination-promoting complex subunit 1) | DRSC16107 | -0.161 | -0.00624 | –
CG8661 | DRSC20115 | -0.0618 | -0.0689 | –
Osi11 (Osiris 11) | DRSC12282 | 0.116 | 1.61 | –
Srlp (Spliceosome-ribosome linker protein) | DRSC15890 | 2.02 | 5.77 | –
Pxd (Peroxidase) | DRSC16805 | 1.45 | 0.201 | –
CG1801 | DRSC20556 | -0.13 | 0.532 | –
CG8508 | DRSC16436 | -0.72 | 0.801 | –
Prp16 (pre-mRNA processing factor 16) | DRSC19538 | -0.254 | -1.69 | -1.52
Prp16 (pre-mRNA processing factor 16) | DRSC19542 | 0.697 | 1.77 | –
CG15631 | DRSC00466 | -3.47 | -1.71 | –
AsnS (Asparagine synthetase) | DRSC11468 | -0.176 | 0.89 | –

Records above whose gene name starts with C or c:
gene | amplicon | droplet/nuclear area B-score, replicate 1 | droplet/nuclear area B-score, replicate 2 | droplet/nuclear area B-score, replicate 3
CG31933 | DRSC00457 | -1.61 | -1.02 | –
CG32450 | DRSC11546 | -1.73 | 1.9 | –
CG8661 | DRSC20115 | -0.0618 | -0.0689 | –
CG1801 | DRSC20556 | -0.13 | 0.532 | –
CG8508 | DRSC16436 | -0.72 | 0.801 | –
CG15631 | DRSC00466 | -3.47 | -1.71 | –

Additional entries follow:
gene | amplicon | droplet/nuclear area B-score, replicate 1 | droplet/nuclear area B-score, replicate 2 | droplet/nuclear area B-score, replicate 3
ps (pasilla) | DRSC15149 | -0.0527 | 0.35 | –
ps (pasilla) | DRSC15151 | 1.26 | 0.631 | –
ps (pasilla) | DRSC15152 | -0.0843 | 2.19 | –
ps (pasilla) | DRSC16388 | 1.99 | 1.83 | –
ps (pasilla) | DRSC22989 | -1.77 | 1.89 | –
Mgat3 | DRSC01305 | 2.04 | 0.0534 | –
Gr93d (Gustatory receptor 93d) | DRSC21941 | -1.01 | 0.674 | –
S6KL (S6 Kinase Like) | DRSC19349 | -0.221 | -3.36 | -1.02
S6KL (S6 Kinase Like) | DRSC21578 | -1.13 | 0.882 | –
S6KL (S6 Kinase Like) | DRSC23147 | -0.333 | -0.1 | –
CG30015 | DRSC05241 | 3.22 | 0.0558 | –
CG30015 | DRSC07027 | 0.016 | -0.696 | –
CG30015 | DRSC07028 | 0.742 | -0.0421 | –
CG16815 | DRSC02521 | -1.76 | 0.585 | –
mRpL22 (mitochondrial ribosomal protein L22) | DRSC19915 | 0.307 | 3.53 | –
Iru (Iruka) | DRSC14457 | 3.31 | 1.32 | –
CG11403 | DRSC18532 | -0.72 | – | –
CG15741 | DRSC19707 | -1.08 | 0.709 | -1.97
gbb (glass bottom boat) | DRSC04687 | -2.49 | -0.278 | –
Art1 (Arginine methyltransferase 1) | DRSC16063 | -0.354 | 0.0147 | –
